Patent US20230272045A1
Results are given in words; binding and its absence hold for the method and conditions named. Some results given as binding are weak or reduced against the parent protein; the word gives no strength.

The chains behind the UniProt entries cited, without tags or fusion partners. Where a name states a change or a piece, a line headed by the entry shows the natural chain unless it says otherwise. A line that says so, or that is headed by a name, gives the form on record, which may keep a tag or linker. Residues count along the entry.
UniProt P24821, residues 23-2201: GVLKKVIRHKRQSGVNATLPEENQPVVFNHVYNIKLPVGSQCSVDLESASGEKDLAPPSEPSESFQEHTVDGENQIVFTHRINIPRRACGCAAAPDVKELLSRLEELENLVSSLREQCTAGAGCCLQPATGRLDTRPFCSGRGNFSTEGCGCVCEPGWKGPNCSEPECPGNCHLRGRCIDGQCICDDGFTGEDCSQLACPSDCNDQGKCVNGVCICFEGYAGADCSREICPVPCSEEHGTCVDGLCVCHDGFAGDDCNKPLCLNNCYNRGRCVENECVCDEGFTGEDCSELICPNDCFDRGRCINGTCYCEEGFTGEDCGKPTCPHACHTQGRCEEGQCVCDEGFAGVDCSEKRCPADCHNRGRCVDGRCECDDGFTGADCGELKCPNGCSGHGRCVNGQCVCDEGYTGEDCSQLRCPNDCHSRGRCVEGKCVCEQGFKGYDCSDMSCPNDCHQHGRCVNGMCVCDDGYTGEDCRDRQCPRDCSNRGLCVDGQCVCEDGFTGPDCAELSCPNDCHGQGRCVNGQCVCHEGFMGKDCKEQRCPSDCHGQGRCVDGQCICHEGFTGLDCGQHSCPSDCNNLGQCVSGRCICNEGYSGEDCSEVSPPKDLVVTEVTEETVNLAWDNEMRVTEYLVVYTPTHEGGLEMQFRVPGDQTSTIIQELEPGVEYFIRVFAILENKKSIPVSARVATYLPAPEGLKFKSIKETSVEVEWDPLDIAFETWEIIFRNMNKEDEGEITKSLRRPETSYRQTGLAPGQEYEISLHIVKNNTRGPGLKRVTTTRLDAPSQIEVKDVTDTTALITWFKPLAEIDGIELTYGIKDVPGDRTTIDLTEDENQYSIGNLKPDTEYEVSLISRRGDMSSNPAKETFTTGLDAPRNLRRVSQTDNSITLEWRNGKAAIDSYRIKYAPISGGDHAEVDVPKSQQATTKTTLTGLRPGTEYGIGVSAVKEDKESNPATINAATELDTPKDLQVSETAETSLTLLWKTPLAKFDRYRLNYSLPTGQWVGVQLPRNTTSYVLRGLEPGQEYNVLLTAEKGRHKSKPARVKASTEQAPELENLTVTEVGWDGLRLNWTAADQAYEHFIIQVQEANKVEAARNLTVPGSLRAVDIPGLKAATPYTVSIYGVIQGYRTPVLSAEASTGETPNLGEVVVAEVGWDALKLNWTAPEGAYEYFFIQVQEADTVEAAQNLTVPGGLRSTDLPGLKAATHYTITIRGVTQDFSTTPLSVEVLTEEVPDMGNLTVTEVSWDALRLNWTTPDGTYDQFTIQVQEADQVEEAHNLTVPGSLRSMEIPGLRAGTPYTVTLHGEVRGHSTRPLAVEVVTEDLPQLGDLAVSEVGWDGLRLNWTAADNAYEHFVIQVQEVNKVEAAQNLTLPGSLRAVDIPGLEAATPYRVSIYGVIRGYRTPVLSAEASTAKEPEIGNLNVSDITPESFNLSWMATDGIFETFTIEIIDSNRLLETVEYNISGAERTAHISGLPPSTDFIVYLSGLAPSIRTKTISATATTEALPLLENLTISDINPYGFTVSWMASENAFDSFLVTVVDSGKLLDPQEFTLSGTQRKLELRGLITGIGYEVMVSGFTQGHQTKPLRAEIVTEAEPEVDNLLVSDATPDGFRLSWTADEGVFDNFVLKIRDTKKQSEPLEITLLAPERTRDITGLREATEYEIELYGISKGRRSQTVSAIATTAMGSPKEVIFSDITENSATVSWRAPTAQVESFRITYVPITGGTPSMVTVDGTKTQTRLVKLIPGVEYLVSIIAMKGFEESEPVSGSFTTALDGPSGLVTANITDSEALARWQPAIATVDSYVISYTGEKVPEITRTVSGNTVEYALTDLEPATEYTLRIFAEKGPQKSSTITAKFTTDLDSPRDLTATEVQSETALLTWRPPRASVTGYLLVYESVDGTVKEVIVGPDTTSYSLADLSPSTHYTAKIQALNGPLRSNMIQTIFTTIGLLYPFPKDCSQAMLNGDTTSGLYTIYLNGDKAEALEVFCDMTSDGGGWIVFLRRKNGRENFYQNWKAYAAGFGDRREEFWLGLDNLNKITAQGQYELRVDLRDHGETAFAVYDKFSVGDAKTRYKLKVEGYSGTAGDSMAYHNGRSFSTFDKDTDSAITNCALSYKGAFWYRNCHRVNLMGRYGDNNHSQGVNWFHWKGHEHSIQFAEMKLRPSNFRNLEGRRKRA
UniProt P02671: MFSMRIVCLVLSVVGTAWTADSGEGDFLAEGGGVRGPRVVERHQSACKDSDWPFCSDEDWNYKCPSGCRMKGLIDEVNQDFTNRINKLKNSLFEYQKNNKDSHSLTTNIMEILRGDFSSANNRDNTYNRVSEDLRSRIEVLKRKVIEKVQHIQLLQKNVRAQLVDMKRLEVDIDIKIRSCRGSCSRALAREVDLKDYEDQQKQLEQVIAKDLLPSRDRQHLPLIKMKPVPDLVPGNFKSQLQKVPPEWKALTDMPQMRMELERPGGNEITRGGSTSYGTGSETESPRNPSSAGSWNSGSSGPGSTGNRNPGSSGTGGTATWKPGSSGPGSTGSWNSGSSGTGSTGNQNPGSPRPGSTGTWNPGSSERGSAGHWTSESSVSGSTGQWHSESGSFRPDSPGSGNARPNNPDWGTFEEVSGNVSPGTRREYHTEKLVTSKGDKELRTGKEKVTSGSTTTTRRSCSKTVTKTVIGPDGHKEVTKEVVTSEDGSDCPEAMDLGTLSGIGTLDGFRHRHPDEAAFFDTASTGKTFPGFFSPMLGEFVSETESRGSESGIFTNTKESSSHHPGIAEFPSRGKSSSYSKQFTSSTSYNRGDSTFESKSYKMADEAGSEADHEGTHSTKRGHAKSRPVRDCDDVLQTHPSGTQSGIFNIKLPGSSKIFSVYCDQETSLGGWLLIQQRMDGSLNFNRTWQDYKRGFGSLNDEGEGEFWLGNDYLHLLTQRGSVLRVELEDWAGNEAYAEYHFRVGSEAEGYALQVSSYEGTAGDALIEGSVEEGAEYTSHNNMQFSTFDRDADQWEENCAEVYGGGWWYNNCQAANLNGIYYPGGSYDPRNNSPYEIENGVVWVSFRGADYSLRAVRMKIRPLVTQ
UniProt P02675: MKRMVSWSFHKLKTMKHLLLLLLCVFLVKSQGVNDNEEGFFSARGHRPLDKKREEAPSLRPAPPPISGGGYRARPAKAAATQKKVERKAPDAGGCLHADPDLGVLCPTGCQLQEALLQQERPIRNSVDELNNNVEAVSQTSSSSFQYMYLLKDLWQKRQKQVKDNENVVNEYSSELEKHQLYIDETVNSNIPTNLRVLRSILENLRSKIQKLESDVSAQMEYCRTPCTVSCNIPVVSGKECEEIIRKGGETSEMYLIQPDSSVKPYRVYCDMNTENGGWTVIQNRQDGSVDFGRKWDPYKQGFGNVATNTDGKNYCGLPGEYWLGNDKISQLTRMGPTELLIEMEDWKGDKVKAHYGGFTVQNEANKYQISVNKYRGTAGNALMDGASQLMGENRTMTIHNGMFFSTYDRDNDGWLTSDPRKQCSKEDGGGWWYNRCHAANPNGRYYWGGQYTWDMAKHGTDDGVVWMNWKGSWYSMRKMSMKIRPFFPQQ
UniProt P02679: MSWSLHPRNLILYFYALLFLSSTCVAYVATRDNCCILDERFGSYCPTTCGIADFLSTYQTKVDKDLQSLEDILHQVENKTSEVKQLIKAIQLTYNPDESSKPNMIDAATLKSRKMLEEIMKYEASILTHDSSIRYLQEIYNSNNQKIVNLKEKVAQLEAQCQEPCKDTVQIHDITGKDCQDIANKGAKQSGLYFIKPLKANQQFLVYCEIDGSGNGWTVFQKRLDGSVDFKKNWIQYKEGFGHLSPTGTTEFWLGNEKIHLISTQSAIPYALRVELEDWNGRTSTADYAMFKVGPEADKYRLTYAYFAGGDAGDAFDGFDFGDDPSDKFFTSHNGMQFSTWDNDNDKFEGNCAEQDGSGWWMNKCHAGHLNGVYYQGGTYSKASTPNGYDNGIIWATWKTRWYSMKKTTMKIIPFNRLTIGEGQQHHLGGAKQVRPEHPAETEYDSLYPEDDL
UniProt P04004, residues 20-478: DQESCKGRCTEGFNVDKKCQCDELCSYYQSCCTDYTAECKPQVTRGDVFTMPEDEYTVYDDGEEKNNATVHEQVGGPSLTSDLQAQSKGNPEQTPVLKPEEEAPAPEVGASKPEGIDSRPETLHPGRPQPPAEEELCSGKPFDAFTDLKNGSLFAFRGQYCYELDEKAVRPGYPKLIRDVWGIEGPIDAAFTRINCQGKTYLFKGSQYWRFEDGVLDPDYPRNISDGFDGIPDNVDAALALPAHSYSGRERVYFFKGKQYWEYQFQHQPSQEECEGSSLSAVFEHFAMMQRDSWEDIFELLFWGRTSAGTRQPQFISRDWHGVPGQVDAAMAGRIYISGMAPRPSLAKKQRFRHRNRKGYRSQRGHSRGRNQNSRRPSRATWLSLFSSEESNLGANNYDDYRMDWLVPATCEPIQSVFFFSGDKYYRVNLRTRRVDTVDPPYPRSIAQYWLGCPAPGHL
PDGF-BB (murine wild-type platelet-derived growth factor-BB) (P31240, residues 82-190): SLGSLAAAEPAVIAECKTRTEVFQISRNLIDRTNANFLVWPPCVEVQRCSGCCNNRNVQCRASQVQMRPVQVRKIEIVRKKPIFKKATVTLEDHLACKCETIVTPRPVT
PDGF-BB/PIGF123-141 (P31240, form named): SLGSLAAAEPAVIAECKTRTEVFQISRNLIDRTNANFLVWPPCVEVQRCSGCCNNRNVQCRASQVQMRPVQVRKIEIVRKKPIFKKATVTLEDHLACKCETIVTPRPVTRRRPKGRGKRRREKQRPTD

How the values were obtained:
human tenascin C (human) [1] = target: human tenascin C (human) (UniProt P24821); assay: ELISA on coated ECM protein, anti-PDGF-BB detection; the wild type has the lower affinity
human fibrinogen (human) = human fibrinogen (human) (UniProt P02671+P02675+P02679); assay: ELISA on coated ECM protein
[2] = target: human vitronectin (human) (UniProt P04004); assay: ELISA on coated ECM protein
[3] = target: human plasma fibronectin (human) (UniProt P02751); assay: ELISA on coated ECM protein
human tenascin C (human) [4] = target: human tenascin C (human) (UniProt P24821); assay: ELISA on coated ECM protein

Row | binding (human tenascin C (human) [1]) | binding (human fibrinogen (human)) | binding [2] | binding [3] | binding (human tenascin C (human) [4]) | Substance
1 | binds | – | – | – | – | PDGF-BB (murine wild-type platelet-derived growth factor-BB) (from UniProt P31240 82-190) (ligand)
2 | – | binds | binds | binds | binds | PDGF-BB/PIGF123-141 (from UniProt P31240 82-190)
